Test system: mixture of NrdA (α) and NrdB (β)
Assay: GEMMA analysis of NrdA-NrdB mixture
Set-up: species or system Leeuwenhoekiella blandensis
Details: 100 µM dATP

Nc1ncnc2c1ncn2[C@H]1C[C@H](O)[C@@H](COP(=O)(O)OP(=O)(O)OP(=O)(O)O)O1 [dATP]
mass of complex formed (0.1 mg/ml NrdA and 0.1 mg/ml NrdB, expected α2β4 (theoretically 348 kDa)): 340 kDa | mass of complex formed at higher protein concentration (0.4 mg/ml NrdA and 0.3 mg/ml NrdB, expected α4β4 (theoretically 488 kDa)): 465 kDa
